The other results are listed elsewhere or left out.
B1: il10ra_site1_sap_29_mot_HHH_b1_05127_000000115_0001_41_56_H_._HHH_b1_05393_0001_0000300018_0000001_0_0001_af2pred_0001 (protein)
chain: SSSSSEERERVEELFEEAERLLEEGDYEEVARLIIEMAELARKGDDPEAIRLVLEIVRKLFSSSS
B2: il10ra_site1_sap_23_mot_HHH_b1_07286_af2_000000054_0001_1_19_H_._HHH_b2_06366_0001_0000200011_0000001_0_0001 (protein)
chain: SSSSDEAYRLVEEAIEEALKLWRNGNPEEAQELIERVIKELEELGNWAAVWAARHVLRVLRSSSS
B3: il10ra_site1_normal_mot_HHH_b1_06914_000000280_0001_1_18_H_._HHH_b2_01688_0001_0000100008_0000002_0 (protein)
chain: SSSSDELAREVYELSREAAELFAQGNEEEAREVLEEAERLAEENNNEFLLLQVRFLLRQIGSSSS
B4: il10ra_site1_sap_21_mot_HHH_b2_04679_000000194_0001_21_38_H_._HHH_b2_07003_af2_0001_0000300020_0000001_0_0001 (protein)
chain: SSSSDVEEEIRELIERAERLAEEGDPEKANELLLRALQLAYRINDPELLREIWEVFEELNSSSSS
B5: il10ra_site1_normal_mot_6bb093d23f5042b6c551c363657da53b_0001_1_000000153_0001_51_65_H_._HHH_b2_05733_af2_0001_0001000045_0000001_0_af2pred_0001 (protein)
chain: SSSSSEEEKRLKELIEELERLLEEGDEEKVLKVLLELSHLAIKLSDPEAIKLALRVAEELSSSSS
B6: il10ra_site1_normal_mot_HHH_b2_08050_000000089_0001_21_37_H_._HHH_b2_00643_0001_0000100003_0000001_0 (protein)
chain: SSSSSKSEQVRRFVRQLIEFSEETGDHRALEAAKSILRLAIESTGDPELEKLLEELEELLSSSSS
B7: il10ra_site1_normal_mot_22aa8d8ad8dce7f663ea8fa348a52261_0001_000000025_0001_37_51_H_._d8cfa582855fb05d91e09f57594ab115_0001_1_0001_0000700016_0000001_0 (protein)
chain: DEELEEALELLERLLPPELLRLLELTIKQLREQGAPPETILQALILLLRARGDPEAAELVEKLLK
B8: il10ra_site1_normal_mot_HHH_b1_03065_af2_000000286_0001_1_17_H_._HHH_b1_04164_af2_0001_0000300023_0000002_0 (protein)
chain: SSSSTDEIYEEVKELLEELNELLREGDEERAEELLKRAKELAEELNNLALRFAIEHLERLLSSSS
B9: il10ra_site1_normal_mot_HHH_b1_02997_000000220_0001_39_52_H_._HHH_b1_05536_0001_0000300041_0000001_1_af2pred_dldesign_0_af2pred (protein)
chain: SSSSSNKLNQEAVELLKKASELDDPEEQRRLLEKALELAKKAKSENLIAVTEYRLAQLEESSSSS
B10: il10ra_site1_normal_mot_HHH_b1_06914_000000280_0001_1_18_H_._HHH_b2_05268_0001_0000100015_0000002_0 (protein)
chain: SSSSNEEAHELYRLSREALELLAEGDPEEAREVVEEAEEIAERAGNRALLFVIEYLLRQINSSSS
B11: il10ra_site1_normal_mot_HHH_b1_05672_af2_000000246_0001_1_19_H_._HHH_b2_02879_af2_0001_0000500024_0000001_0_af2pred_dldesign_0_af2pred (protein)
chain: SSSSDPQTRVAELLREVVRLLDEGKPEEAREVLAEAERLAEELGDAELQKAVELVRAYVESSSSS
B12: il10ra_site1_normal_mot_HHH_b2_06979_000000158_0001_42_57_H_._HHH_b1_03932_af2_0001_0000400024_0000001_0_af2pred_dldesign_0_af2pred (protein)
chain: SSSSSSKDLTEEAVALLREALELDDKEKRKELLDKALELAKKAGSKILVDAIEYLRKQLESSSSS
B13: il10ra_site1_sap_17_mot_HHH_b2_07145_000000158_0001_24_40_H_._069d1585ae11fb35a31570eb630733e4_0001_af2_0001_0000300005_0000001_0_0001 (protein)
chain: SSSSDEEVRELIEEAEELAERGDPERAIEVLQRALRLAFQEGDEELLQLIWELARKIGELVSSSS
B14: il10ra_site1_normal_mot_HHH_b2_02116_af2_000000165_0001_41_55_H_._HHH_b2_08065_af2_0001_0000200009_0000001_0_af2pred_0001 (protein)
chain: SSSSSDDERAVELLLRAAELAAEEGDPRLAEAALRLAEQIAKHGNNPELEEEVERVLRELSSSSS
B15: il10ra_site1_sap_20_mot_HHH_b1_05056_000000217_0001_1_20_H_._HHH_b1_04549_0001_0000200019_0000001_1_0001 (protein)
chain: SSSSSLEEQVRAAERFLRWLYEAGDPEAARRIAEAILEAVKKDGNEELFERLEEILEEINSSSSS
B16: il10ra_site1_sap_24_mot_HHH_b1_03094_000000294_0001_1_20_H_._HHH_b2_02427_0001_0000400035_0000001_0_0001_af2pred_0001 (protein)
chain: SEEEEVERMLRFLALAAGVKSVEVTTENGEVTVTVENVSPEARELIEAAVRFLRDRGLNVSFETR
B17: il10ra_site1_normal_mot_HHH_b2_00277_af2_000000172_0001_1_17_H_._HHH_eva_0065_0002_0000400034_0000001_0 (protein)
chain: DPEKEKLEEEIREVLERFEKGKIDPEEAKELLSRLAFKAARLGDDEAVELAIRAYAAIHQAEQRS
B18: il10ra_site1_sap_24_mot_HHH_b2_02497_000000220_0001_1_20_H_._HHH_b2_07522_0001_0000300052_0000001_0_0001 (protein)
chain: SSSSDEEEREVERLIEEAEELVEKGDHREAIRVIQRAVRIALRANNPELLQRLWELVQELASSSS
B19: il10ra_site1_normal_mot_HHH_b1_07097_af2_000000269_0001_1_16_H_._HHH_b2_00103_af2_0001_0000100006_0000001_0 (protein)
chain: SSSSSEESERAIELIRKAAKLHHEGNPEEAQELLEEALKIAEEGGNDIIVFTLEWLLERLSSSSS
B20: il10ra_site1_sap_22_mot_HHH_b1_06701_000000046_0001_23_39_H_._ems_3hC_1315_0002_0001_0000300020_0000001_0_0001 (protein)
chain: SSSSSDVEERAREIFEELEEALERRDADELYKLLRELIELAHEFNSEEVEELVHRIVKRFSSSSS
B21: il10ra_site1_sap_20_mot_HHH_b2_02386_000000054_0001_1_20_H_._HHH_b1_00963_af2_0001_0000100006_0000001_0_0001 (protein)
chain: SSSSDMKEYAELALRFVRWLQEAGSEENLRLMLRAAAQVAERANDEEVLRELEEILEELESSSSS
B22: il10ra_site1_normal_mot_HHH_b2_04275_000000272_0001_20_36_H_._HHH_b1_02692_0001_0000200018_0000002_1_af2pred_0001 (protein)
chain: SSSSDLVHEIFELLRRIAELQNDGNEEEARELIERARELIEEAGNLVFKAALEYLEKLLESSSSS
B23: il10ra_site1_normal_mot_HHH_b2_06979_000000158_0001_42_57_H_._HHH_b2_03102_0001_0000100005_0000002_0_af2pred_0001 (protein)
chain: SSSSSEEQERLYRLSREAAELLFEGNKEEAQELLEEAEELAKELGNELALVILEFLLKQLGSSSS
B24: il10ra_site1_sap_23_mot_HHH_b2_06795_000000133_0001_42_56_H_._HHH_b1_03610_0001_0000100008_0000002_0_0001 (protein)
chain: SSSSTETVQEVMRLLRRALELARNGNPEEAQELLEEAEELARENNNILLEFNIEHVLRDLSSSSS
B25: il10ra_site1_sap_19_mot_HHH_b1_04015_af2_000000074_0001_1_17_H_._HHH_b2_05711_0001_0000100005_0000001_0_0001_af2pred_0001 (protein)
chain: SSSSNEEQRVSELLFRVIELYANGNPEEAEEVLKEAERLAKELGDEELERAVEIAKRFVEASSSS
B26: il10ra_site1_normal_mot_65b8060e20531850bca9f2e11f97d954_0001_af2_000000137_0001_17_31_H_._HHH_b2_06425_af2_0001_0000900035_0000001_0_af2pred_0001 (protein)
chain: SSSSDERDKETLRHAIRAVEFLLRQGNEELAKLAARFIKADIEDLGDEELREELERVEEEGSSSS
B27: il10ra_site1_sap_18_mot_HHH_b2_04327_000000030_0001_41_55_H_._HHH_b2_03484_af2_0001_0000400008_0000001_0_0001_af2pred_0001 (protein)
chain: SSSSSSSEEEELMQLAAEISRHASPEEIRRLFELLVRLYHEGDPELKEELRELIEEIKSSSSSSS
B28: il10ra_site1_sap_22_mot_2ff9a36852ec7b54996b5ca24e2ac07d_0001_000000066_0001_1_13_H_._7770fb65905d5f0854f63973399109c0_0001_0001_0000200009_0000001_0_0001 (protein)
chain: SSSSSQERYEELKRLIEEILRLAWEGNPEEAQEVAEEAEELLRRLGDEYAVRIIESLRRMASSSS
B29: il10ra_site1_normal_mot_HHH_b1_03168_000000120_0001_38_55_H_._4c81b332851cb4c2cca13356e2a6c842_0001_0001_0000200014_0000001_0_af2pred_0001 (protein)
chain: SAFLLAAVVLALLRNGNPELARKFEEELEELAKTDPEAREALELLEQVKEEGDPELAAKIVELAA
B30: il10ra_site1_sap_18_mot_HHH_b2_00597_000000260_0001_41_55_H_._HHH_b1_07547_0001_0000500027_0000001_0_0001_af2pred_0001 (protein)
chain: SSSSSSESEELYRLSREAAELLAEGNPEEAREVLEEARELAEEAGDENTLWVIEFLLKLASSSSS
B31: il10ra_site1_normal_mot_HHH_b2_00800_af2_000000047_0001_1_20_H_._HHH_b1_04999_0001_0000200017_0000001_0 (protein)
chain: SSSSQEIYEFAREAIELVIELLREGNPEEAEKVVEELEELAKERNNHAVEATARILKRAINSSSS
B32: il10ra_site1_sap_28_mot_HHH_b2_03076_000000205_0001_1_19_H_._HHH_b1_03492_af2_0001_0000200019_0000001_0_0001 (protein)
chain: SSSSSDEEYEEEVEELLEEAKRIPDPEEAARVLAEAVHAAAELGNPELLRLVWRVVHEISSSSSS
B33: il10ra_site1_sap_23_mot_HHH_b1_03260_000000175_0001_42_57_H_._HHH_b1_06107_0001_0000700025_0000001_0_0001_af2pred_0001 (protein)
chain: SSSSSDEEEERVEELLEEAKHIPNAEERFRVLKEALELAAELNNPELLRLVRKVAREILTSSSSS
B34: il10ra_site1_normal_mot_HHH_b1_05357_000000034_0001_23_39_H_._HHH_b2_08253_0001_0000500003_0000001_0_af2pred_0001 (protein)
chain: SSSSSSSEEEVEELLEEAKRVDDPRERAYLLTRAYALANRLNDPELRREVEEVAIKLVSSSSSSS
B35: il10ra_site1_sap_8_mot_HHH_b1_01307_000000115_0001_1_18_H_._HHH_b2_08385_0001_0000300007_0000001_0_0001 (protein)
chain: SSSSSDREEVLRLSLQAFRLLLRGNPEEARKVLEEAEELAEELGDERMLKVIEDLLRILNSSSSS
B36: il10ra_site1_normal_mot_HHH_b1_07641_af2_000000285_0001_1_21_H_._HHH_b2_02373_0001_0000100004_0000002_0 (protein)
chain: SSSSDTEEAMRLAEEASEALQKGDTEEARELLEQAREIAEEKGNEVLLWSIEYLLRQVEEESSSS
B37: il10ra_site1_normal_mot_HHH_b1_02997_000000220_0001_39_52_H_._HHH_b1_01256_0001_0000100003_0000001_0_af2pred_0001 (protein)
chain: SSSSSDHEVVREIQELLREALKIEDPEEAREVVERAIELAEEANNPLLELIAKYLLKDLNSSSSS

Target: il10ra, Q13651
Test: yeast display titration

Apparent Kd, inactive:
B1 no binding seen, B2 no binding seen, B3 no binding seen, B4 no binding seen, B5 no binding seen, B6 no binding seen, B7 no binding seen, B8 no binding seen, B9 no binding seen, B10 no binding seen, B11 no binding seen, B12 no binding seen, B13 no binding seen, B14 no binding seen, B15 no binding seen, B16 no binding seen, B17 no binding seen, B18 no binding seen, B19 no binding seen, B20 no binding seen, B21 no binding seen, B22 no binding seen, B23 no binding seen, B24 no binding seen, B25 no binding seen, B26 no binding seen, B27 no binding seen, B28 no binding seen, B29 no binding seen, B30 no binding seen, B31 no binding seen, B32 no binding seen, B33 no binding seen, B34 no binding seen, B35 no binding seen, B36 no binding seen, B37 no binding seen

Reference: article PMC10163288
